Experimental data reported in patent US20120107317A1, “USE OF CYTOPLASMIC C-MYC FOR REGULATING IMMUNE RESPONSES” (priority 2010, published 2012).
These are yes or no findings as the source states them, for the method shown. In cells and extracts the contact can be indirect. Some results given as binding are weak or reduced against the parent protein; the word gives no strength.

Protein sequences, listed by entry. Tags and fused reporters are not part of them. Lines headed by an entry give the natural chain unless they say otherwise; changes in a name come on top.
UniProt P25963: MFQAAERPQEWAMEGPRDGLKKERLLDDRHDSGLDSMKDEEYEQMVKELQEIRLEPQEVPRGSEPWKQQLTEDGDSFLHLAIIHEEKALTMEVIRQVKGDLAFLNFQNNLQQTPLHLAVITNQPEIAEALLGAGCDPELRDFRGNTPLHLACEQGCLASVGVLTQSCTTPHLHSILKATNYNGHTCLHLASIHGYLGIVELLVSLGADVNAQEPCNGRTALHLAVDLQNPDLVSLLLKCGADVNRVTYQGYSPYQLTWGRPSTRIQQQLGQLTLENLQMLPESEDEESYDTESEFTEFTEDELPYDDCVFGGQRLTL
UniProt P01106: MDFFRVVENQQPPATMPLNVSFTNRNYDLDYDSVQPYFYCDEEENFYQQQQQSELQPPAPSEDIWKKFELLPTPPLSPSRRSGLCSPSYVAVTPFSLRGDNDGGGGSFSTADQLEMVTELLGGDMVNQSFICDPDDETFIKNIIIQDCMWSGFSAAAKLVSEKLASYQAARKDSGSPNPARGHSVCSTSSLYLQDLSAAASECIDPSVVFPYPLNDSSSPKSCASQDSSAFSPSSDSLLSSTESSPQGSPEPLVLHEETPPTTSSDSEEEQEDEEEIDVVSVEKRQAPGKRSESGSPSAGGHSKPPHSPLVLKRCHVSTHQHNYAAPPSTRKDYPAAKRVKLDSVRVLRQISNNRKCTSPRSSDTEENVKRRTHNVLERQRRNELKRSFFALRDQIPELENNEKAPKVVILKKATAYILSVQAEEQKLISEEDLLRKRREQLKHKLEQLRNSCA

Experiments:
[1] = molecular target: IκBα (endogenous protein of primary human blood macrophages) (human) (UniProt P25963); experiment: co-immunoprecipitation with anti-c-Myc antibody from PBMac lysates, Western blot
[2] = molecular target: IκBα (endogenous protein of primary human blood macrophages) (human) (UniProt P25963); experiment: co-immunoprecipitation from PBMac lysates, Western blot
[3] = molecular target: IκBα (endogenous protein of primary human blood macrophages) (human) (UniProt P25963); experiment: co-immunoprecipitation from PBMac lysates, Western blot (FIG. 10 legend)
[4] = molecular target: IκBα (endogenous protein of primary human blood macrophages) (human) (UniProt P25963); experiment: reciprocal co-immunoprecipitation with anti-IκBα antibodies from PBMac lysates, Western blot

Measured: binding

c-Myc (endogenous protein of primary human blood macrophages) (from UniProt P01106 16-454)
binds: all assays above
